In article PMC8894380:
Residue numbers refer to the chain shown, from its start. No constants are given. Whether binding was seen depends on the method and setting. In cells and extracts the contact can be indirect. Here binding means that the protein was enriched with, or labelled near, the bait; the list need not be complete. Sequences can lack the tags named with a protein.

Protein sequences, listed by entry. Tags and fused reporters are not part of them.
UniProt P61326: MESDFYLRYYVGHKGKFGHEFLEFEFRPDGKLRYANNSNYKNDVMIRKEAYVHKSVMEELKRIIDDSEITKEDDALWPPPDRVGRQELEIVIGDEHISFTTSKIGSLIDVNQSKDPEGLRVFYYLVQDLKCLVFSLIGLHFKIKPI
UniProt Q9BUQ8: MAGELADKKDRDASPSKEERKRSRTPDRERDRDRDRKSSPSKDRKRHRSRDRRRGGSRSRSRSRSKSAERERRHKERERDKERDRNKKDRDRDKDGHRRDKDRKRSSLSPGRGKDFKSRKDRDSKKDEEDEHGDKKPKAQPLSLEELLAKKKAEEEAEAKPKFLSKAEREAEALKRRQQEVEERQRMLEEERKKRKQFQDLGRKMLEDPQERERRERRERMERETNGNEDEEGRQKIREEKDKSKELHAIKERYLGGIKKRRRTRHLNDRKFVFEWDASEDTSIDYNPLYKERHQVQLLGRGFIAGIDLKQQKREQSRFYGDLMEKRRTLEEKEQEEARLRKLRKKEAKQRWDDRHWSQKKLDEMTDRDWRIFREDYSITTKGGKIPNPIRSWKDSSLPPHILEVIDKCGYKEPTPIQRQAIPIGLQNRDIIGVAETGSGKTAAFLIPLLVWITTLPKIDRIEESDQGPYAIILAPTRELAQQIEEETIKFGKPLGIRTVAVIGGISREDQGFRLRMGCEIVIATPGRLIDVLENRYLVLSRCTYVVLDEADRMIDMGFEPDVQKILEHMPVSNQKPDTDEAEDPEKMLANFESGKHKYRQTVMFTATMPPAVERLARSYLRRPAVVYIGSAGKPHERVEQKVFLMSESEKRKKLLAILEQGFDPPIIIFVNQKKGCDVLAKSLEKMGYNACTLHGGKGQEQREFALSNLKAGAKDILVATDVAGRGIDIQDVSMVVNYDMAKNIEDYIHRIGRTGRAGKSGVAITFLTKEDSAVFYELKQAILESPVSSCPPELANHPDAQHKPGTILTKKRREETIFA
UniProt Q13123: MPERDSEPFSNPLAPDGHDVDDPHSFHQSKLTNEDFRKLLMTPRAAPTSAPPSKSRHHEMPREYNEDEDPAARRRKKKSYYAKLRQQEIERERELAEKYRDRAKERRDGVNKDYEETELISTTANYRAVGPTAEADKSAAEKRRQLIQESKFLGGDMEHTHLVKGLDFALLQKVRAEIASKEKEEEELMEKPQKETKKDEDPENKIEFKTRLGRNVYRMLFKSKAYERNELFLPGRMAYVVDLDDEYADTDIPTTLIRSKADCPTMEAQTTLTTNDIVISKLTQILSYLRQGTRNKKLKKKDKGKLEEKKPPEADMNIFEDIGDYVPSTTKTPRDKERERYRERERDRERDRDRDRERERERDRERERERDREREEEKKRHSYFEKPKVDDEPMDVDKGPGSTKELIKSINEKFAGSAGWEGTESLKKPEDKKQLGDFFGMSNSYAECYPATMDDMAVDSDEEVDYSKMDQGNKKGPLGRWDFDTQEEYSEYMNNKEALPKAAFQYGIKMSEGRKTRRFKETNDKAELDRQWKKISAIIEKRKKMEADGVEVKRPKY

Tests used:
[1] = target: T1, C9ORF78^R41A with C-terminal 3xFlag-His6-Biotin-His6 tag (human) (UniProt Q9NZ63); experiment: affinity purification with mass spectrometry; Flag-IP (Flag M2 affinity gel) from 500 ug nuclear extract of Flp-In T-REx 293 stable cells, IP buffer 150 mM NaCl with benzonase, eluted with 3xFlag peptide; label-free LC-MS against control IP of unmodified cells
T1 sequence: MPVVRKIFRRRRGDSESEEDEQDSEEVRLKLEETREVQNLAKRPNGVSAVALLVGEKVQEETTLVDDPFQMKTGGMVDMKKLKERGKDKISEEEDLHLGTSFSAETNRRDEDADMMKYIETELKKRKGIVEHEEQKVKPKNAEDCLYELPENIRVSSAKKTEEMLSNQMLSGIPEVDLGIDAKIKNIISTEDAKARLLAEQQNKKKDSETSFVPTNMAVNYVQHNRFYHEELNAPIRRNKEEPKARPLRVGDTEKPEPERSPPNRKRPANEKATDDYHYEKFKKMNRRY

[2] = target: T2, C9ORF78 with C-terminal 3xFlag-His6-Biotin-His6 tag (human) (UniProt Q9NZ63); experiment: as above
T2 sequence: T1 sequence with A41R

Row | Substance | binding [1] | binding [2]
1 | MAGOH (from UniProt P61326 1-146) | binds | 
2 | PRPF28/DDX23 (from UniProt Q9BUQ8 1-820) (enzyme) | binds | 
3 | RED (from UniProt Q13123 1-557) |  | binds
